Two molecules from article PMC5536908 can be followed below.

What all share (test): pull-down; GST fusion proteins (or GST) bound to glutathione Sepharose 4B beads; GFP-tagged proteins from D. discoideum lysates; 10 mM Tris-HCl pH 7.5, 100 mM NaCl added to the lysate; blot probed with anti-GFP mAb K3-184-2; only the target purified
In assay [1] the target is T1, GST-DUF3735 (GPHR residues 174-270) (D. discoideum) (UniProt Q54QM5).
T1 sequence: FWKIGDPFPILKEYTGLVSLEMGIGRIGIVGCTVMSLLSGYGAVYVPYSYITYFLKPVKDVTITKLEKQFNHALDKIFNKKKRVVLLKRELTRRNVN

Assay [2] addresses GST-catalytic domain of TPP1F (residues 201-702) (D. discoideum).
Assay [3] addresses GST-prodomain of TPP1F (residues 21-200) (D. discoideum).
Assay [4] deals with GST-TPP1B (residues 21-598) (D. discoideum).
Assay [5] has as its target GST-TPP1F (residues 21-702, lacking the signal peptide) (D. discoideum).

Results are given in words; binding and its absence hold for the method and conditions named. In cells and extracts the contact can be indirect. For some assays here: Binding can be weak; no strength is given. Sequences can lack the tags named with a protein.

As to “TPP1F-GFP (amino acid residues 1-702) (D. discoideum) (enzyme)”, the binding result in assay [1] is reported as “binds”.

B1: GPHR-GFP (Dictyostelium discoideum Golgi pH regulator, GFP-tagged) (protein, UniProt Q54QM5 1-547)
chain: MDTFTIEEIVKFDGGGGGISTINSNNDNIGIPSNTFEMIISTIQHFLDRSSSVASTIAVFVLSFILFFMFGWFYFLKILFRDYEVKKVFVQLSFSITFALSLTLFELIFFEIMDFMDREWRYRFWEFDLTLMSINLILVLPYYQFYLLVLAYGFSKRKTLFFSLVLLVLYLILFWKIGDPFPILKEYTGLVSLEMGIGRIGIVGCTVMSLLSGYGAVYVPYSYITYFLKPVKDVTITKLEKQFNHALDKIFNKKKRVVLLKRELTRRNVNNNNNNNNNYDTYNYNNNYNNNSNNNNNNNNSNNNNNNNLPIIGPIFSKIYNLWNVGYHHQLSRPIDDIKQLEREIKQLEDLNRDLFTQIHELKLERLRIQFSTTLRGKFYNWLGYFFSIYWKKKSALNIVFDRRGGMDPVTRGLDIALRYFHFQVDVTFWSQHISFILVGLMTASSIRGFLNQILKVFHEYSSSLSSNNIVLILAQVMGMYFISSVLMMRTSMPEIYTRFIVTQILGDIEFSFYHRWFDFIFIPSAIITTLALIFMSKSSTFHLNDE
With B1, the binding entry in assay [2] is “no binding”; in assay [3], “binds”; in assay [4] it was “binds”; in assay [5], “binds”.
